Assay: Liver microsome metabolic stability assay
Conditions: human, microsomes
Protocol: The reaction media contained liver microsomes (0.5 mg/mL), 1.0 mM β-nicotinamide adenine dinucleotide phosphate (β-NADPH), 3 mM MgCl2 phosphate buffer. Microsomal suspensions were pre-incubated with Tc3 for 3 min at 37℃. The reaction was initiated with the addition of β-NADPH and samples were collected at 0, 5, 15, 30 and 60 min. The negative control was excluded of β-NADPH. Midazolam was incubated similarly as a positive control substrate. At each time point, an aliquot was mixed acetonitrile. Samples were centrifuged and then supernatant was mixed with ultrapure water for LC-MS/MS analysis.

Cc1ncc2n1-c1ccc(Cl)cc1C(c1ccccc1F)=NC2 [midazolam, reference compound] showed a half-life at 1 μM of 2.9 min.

— publication PMC11729550, “Discovery of indole analogue Tc3 as a potent pyroptosis inducer and identification of its combination strategy against hepatic carcinoma” (Theranostics, 2025)
